Measured values: paper PMC3085091
No constants are given. Whether binding was seen depends on the method and setting. Binding seen in cells or lysates may run through a third protein. Some entries that bind do so weakly or less than the wild type. Where a sequence is shown, tags or fusion partners need not be part of it.

Sequences of proteins named here, by UniProt entry; tags and fusion partners are left off.
UniProt P17302: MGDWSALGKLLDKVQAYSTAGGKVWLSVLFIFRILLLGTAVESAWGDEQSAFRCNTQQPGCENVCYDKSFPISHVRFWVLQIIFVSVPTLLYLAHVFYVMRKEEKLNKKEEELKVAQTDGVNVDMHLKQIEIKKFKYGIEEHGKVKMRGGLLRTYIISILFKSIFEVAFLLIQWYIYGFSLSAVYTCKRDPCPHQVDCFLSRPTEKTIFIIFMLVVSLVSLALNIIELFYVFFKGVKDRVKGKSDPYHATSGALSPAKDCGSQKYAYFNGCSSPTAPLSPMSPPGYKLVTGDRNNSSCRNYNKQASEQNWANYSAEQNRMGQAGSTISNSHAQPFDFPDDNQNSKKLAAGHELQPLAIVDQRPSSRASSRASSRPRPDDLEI

T1: cytoplasmic region of desmocollin-2a wild-type, GST fusion protein, expressed in COS-1 cells (UniProt Q02487)
T1 sequence: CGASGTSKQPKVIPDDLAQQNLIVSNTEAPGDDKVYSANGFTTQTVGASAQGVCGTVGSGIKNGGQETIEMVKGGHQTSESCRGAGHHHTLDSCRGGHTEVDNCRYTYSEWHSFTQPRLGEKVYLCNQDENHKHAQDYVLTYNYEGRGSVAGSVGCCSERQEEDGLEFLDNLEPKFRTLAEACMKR

T2: cytoplasmic region of desmocollin-2a wild-type, GST fusion protein, bacterially expressed (UniProt Q02487)
T2 sequence: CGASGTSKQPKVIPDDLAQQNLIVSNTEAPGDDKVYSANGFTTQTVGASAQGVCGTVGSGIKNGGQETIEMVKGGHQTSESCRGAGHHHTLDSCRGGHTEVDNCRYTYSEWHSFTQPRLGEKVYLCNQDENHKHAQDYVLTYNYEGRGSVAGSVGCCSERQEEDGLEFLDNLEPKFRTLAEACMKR


Experiments:
[1] = target: T1, cytoplasmic region of desmocollin-2a wild-type, GST fusion protein, expressed in COS-1 cells; test: pull-down; GST pulldown from COS-1 cells coexpressing GST fusions of the DSC2 cytoplasmic region with Cx43-YFP
[2] = target: T2, cytoplasmic region of desmocollin-2a wild-type, GST fusion protein, bacterially expressed; test: pull-down; GST pulldown: bacterially expressed GST fusions of the DSC2 cytoplasmic region as bait, rat heart lysate; PG and PKP2 detected by blot; only the target purified

Row | binding [1] | binding [2] | Molecule
1 | binds |  | connexin43 yellow fluorescent protein (YFP) fusion protein (from UniProt P17302 1-382)
2 |  | binds | plakophilin-2 from rat heart lysate (protein, UniProt F1M7L9 1-814) MAIPGSLGECGYIRTVLGQQILGHLDSSSLALPSEARLRLAGSSGRGDPVARSQRIQEQVQQTLARRGRSSVVGGNLHRTSSVPEYVYKLHLVENDFVGRQSPAARDYDMLKVGLSGWRDGSTLKVPCTSIKPHREKKTWIEALREGLEHTTDHTDCPAHYVYSHYYFNSKKSNILVFQHIKDKSLQRNAIILLSPEHCTCQHVRLIPSSVLPSLFNQLQLSPELYFSNMGTLYMTSIKGTLCIQLLKGKLPAKHQANFVTMAERRVYTLLLSSTTSSETSFRRTGDTLPSVTSGQSRVHGLHFHHVICDCLSRNADLEMTLERAVNMLDADHVPLSKISAAATFIQHESFQKSEARKRVNQLQGIPKLLQLLKVQNEDVQRAVCGALRNLVFEDNDNKVTVVLGKVNITKREGGGQAAGYMKETWKLANKNPVFLGLLWNLSSSDKLKHLMITEALLTLTESVIIPFSGWPEGDYPKANGLLDFDIFYNVTGCLRNMSSAGPDGRKVMRRCDGLIDSLVHYVRGTIADYQPDDKATENCVCILHNLSYQLEAELPEKYSQSIYMQNRNIQTNSNKSIGCFGSRSRKVKEQYQDTPMPEERSSPRGIEWLWHSIVIRMYLSLIAKSSRNYTQEASLGALQNLTAGSGPIPTSVARMVVQKENGLQHTRKMLHVGDPSVKKTAVSLLRNLSRNLSLQNEIAKETLPDLVSIIPDTVPSTDLLIETTASACYTLNNLMQNSYQNARDLLNTGGLQKIMTISIGEGYAPNKASKAASVLLYSLWAHTELHNAYKKAQFKKTDFVNSRTAKASHSLKD
3 |  | binds | plakoglobin from rat heart lysate (protein, UniProt Q6P0K8 1-745) MEVMNLIEQPIKVTEWQQTYTYDSGIHSGVNTCVPSVSSKGLLDEDDTCGRQYTLKKTTTYTQGVPQSQGDLEYQMSTTARAKRVREAMCPGVSGEDSSLLLATQVEGQTTNLQRLAEPSQLLKSAIVHLINYQDDAELATRALPELTKLLNDEDPVVVTKAAMIVNQLSKKEASRRALMGSPQLVAAVVRTMQNTSDLDTARCTTSILHNLSHHREGLLAIFKSGGIPALVRMLSSPVESVLFYAITTLHNLLLYQEGAKMAVRLADGLQKMVPLLNKNNPKFLAITTDCLQLLAYGNQESKLIILANGGPQGLVQIMRNYSYEKLLWTTSRVLKVLSVCPSNKPAIVEAGGMQALGKHLTSNSPRLVQNCLWTLRNLSDVATKQEGLENVLKILVNQLSVDDVNVLTCATGTLSNLTCNNSKNKTLVTQNSGVEALIHAILRAGDKDDITEPAVCALRHLTSRHPEAEMAQNSVRLNYGIPAIVKLLNQPNQWPLVKATIGLIRNLALCPANHAPLQEAAVIPRLVQLLVKAHQDAQRHVAAGTQQPYTDGVRMEEIVEGCTGALHILARDPMNRMEIFRLNTIPLFVQLLYSSVENIQRVAAGVLCELAQDKEAADAIDAEGASAPLMELLHSRNEGTATYAAAVLFRISEDKNPDYRKRVSVELTNSLFKHDPAAWEAAQSMIPINEPYADDMDATYRPMYSSDVPLDPLDMHMDMDGDYPMDTYSDGLRPPYPAADHMLA
